From article PMC3814295
No constants are given. Whether binding was seen depends on the method and setting. In cells and extracts the contact can be indirect. Some results given as binding are weak or reduced against the parent protein; the word gives no strength. Where a sequence is shown, tags or fusion partners need not be part of it.

What was measured:
[1] = biological target: T1, purified 6xHis-tagged RAD52 (human) (UniProt P43351); test: pull-down; 5 ug purified His-tagged RAD52 as bait incubated overnight with 1 mg benzonase-treated HeLa nuclear extract in Tris/Cl pH 7.6, 150 mM NaCl, 0.5% Triton X-100; captured with anti-His antibody-coupled Protein G (magnetic beads) 1 h at RT; Western blotting; only the target purified
T1 sequence: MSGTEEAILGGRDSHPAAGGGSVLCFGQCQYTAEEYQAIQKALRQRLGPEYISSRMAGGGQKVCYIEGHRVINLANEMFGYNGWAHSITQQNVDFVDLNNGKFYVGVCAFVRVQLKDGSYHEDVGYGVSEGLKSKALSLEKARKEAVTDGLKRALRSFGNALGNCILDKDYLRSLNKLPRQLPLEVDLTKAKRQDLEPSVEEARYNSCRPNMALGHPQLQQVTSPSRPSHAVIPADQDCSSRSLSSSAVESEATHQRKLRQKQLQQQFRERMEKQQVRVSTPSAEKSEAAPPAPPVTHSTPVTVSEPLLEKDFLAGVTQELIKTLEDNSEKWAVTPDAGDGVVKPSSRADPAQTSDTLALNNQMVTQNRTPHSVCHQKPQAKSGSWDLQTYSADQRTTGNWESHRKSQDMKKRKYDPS

Myc-tagged MUS81 (human) = biological target: T2, Myc-tagged MUS81 (human) (UniProt Q96NY9); test: co-IP + pull-down; Myc-MUS81 and GST-EME1 co-expressed in 293T; benzonase-treated nuclear lysate on anti-Myc agarose, washed in 300 mM NaCl, 0.5% Triton X-100, eluted with Myc peptide, then captured on GSH-agarose and eluted with 25 mM glutathione; SDS-PAGE with Coomassie staining
T2 sequence: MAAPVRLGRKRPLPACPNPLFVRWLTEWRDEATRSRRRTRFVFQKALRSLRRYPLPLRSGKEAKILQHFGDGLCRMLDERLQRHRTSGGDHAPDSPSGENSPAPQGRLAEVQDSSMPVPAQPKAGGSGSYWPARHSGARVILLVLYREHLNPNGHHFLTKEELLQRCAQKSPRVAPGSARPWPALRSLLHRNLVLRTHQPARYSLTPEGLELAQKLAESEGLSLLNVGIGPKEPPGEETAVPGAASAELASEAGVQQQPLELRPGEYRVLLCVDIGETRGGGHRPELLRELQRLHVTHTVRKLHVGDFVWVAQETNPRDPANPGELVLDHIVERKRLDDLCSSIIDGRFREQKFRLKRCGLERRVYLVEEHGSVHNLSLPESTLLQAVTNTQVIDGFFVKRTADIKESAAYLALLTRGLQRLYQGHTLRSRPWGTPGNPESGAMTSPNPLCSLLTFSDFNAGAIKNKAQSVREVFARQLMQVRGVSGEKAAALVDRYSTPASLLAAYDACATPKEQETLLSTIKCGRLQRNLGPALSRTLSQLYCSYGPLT

B1: MUS81 (HeLa nuclear extract) (protein, UniProt Q96NY9 1-551)
chain: MAAPVRLGRKRPLPACPNPLFVRWLTEWRDEATRSRRRTRFVFQKALRSLRRYPLPLRSGKEAKILQHFGDGLCRMLDERLQRHRTSGGDHAPDSPSGENSPAPQGRLAEVQDSSMPVPAQPKAGGSGSYWPARHSGARVILLVLYREHLNPNGHHFLTKEELLQRCAQKSPRVAPGSARPWPALRSLLHRNLVLRTHQPARYSLTPEGLELAQKLAESEGLSLLNVGIGPKEPPGEETAVPGAASAELASEAGVQQQPLELRPGEYRVLLCVDIGETRGGGHRPELLRELQRLHVTHTVRKLHVGDFVWVAQETNPRDPANPGELVLDHIVERKRLDDLCSSIIDGRFREQKFRLKRCGLERRVYLVEEHGSVHNLSLPESTLLQAVTNTQVIDGFFVKRTADIKESAAYLALLTRGLQRLYQGHTLRSRPWGTPGNPESGAMTSPNPLCSLLTFSDFNAGAIKNKAQSVREVFARQLMQVRGVSGEKAAALVDRYSTPASLLAAYDACATPKEQETLLSTIKCGRLQRNLGPALSRTLSQLYCSYGPLT
[1]
  binding: binds

B2: GST-tagged EME1 (protein, UniProt Q96AY2 1-570)
chain: MALKKSSPSLDSGDSDSEELPTFAFLKKEPSSTKRRQPEREEKIVVVDISDCEASCPPAPELFSPPVPEIAETVTQTQPVRLLSSESEDEEEFIPLAQRLTCKFLTHKQLSPEDSSSPVKSVLDHQNNEGASCDWKKPFPKIPEVPLHDTPERSAADNKDLILDPCCQLPAYLSTCPGQSSSLAVTKTNSDILPPQKKTKPSQKVQGRGSHGCRQQRQARQKESTLRRQERKNAALVTRMKAQRPEECLKHIIVVLDPVLLQMEGGGQLLGALQTMECRCVIEAQAVPCSVTWRRRAGPSEDREDWVEEPTVLVLLRAEAFVSMIDNGKQGSLDSTMKGKETLQGFVTDITAKTAGKALSLVIVDQEKCFSAQNPPRRGKQGANKQTKKQQQRQPEASIGSMVSRVDAEEALVDLQLHTEAQAQIVQSWKELADFTCAFTKAVAEAPFKKLRDETTFSFCLESDWAGGVKVDLAGRGLALVWRRQIQQLNRVSLEMASAVVNAYPSPQLLVQAYQQCFSDKERQNLLADIQVRRGEGVTSTSRRIGPELSRRIYLQMTTLQPHLSLDSAD
Myc-tagged MUS81 (human)
  binding: binds
